Some of these results come from one statement about several compounds together.
Test system: collagen-induced arthritis (CIA) model mice
Assay: collagen-induced arthritis (CIA) model mice, clinical scores
Format: in vivo, DBA/1J mice
Conditions: day 44
Excerpt: FIGS. 8A and 8B show graphs depicting clinical score changes in four groups of CIA mouse models under different treatment schemes. In FIG. 8A, different chemicals (DMSO as control for Model group, blank group is left untreated) were daily administered intraperitoneally at the indicated doses from the first injection of the collagen agent. In FIG. 8B, different chemicals were daily administered intraperitoneally from the second injection of collagen agent at the indicated doses. Clinical scores were given double-blindly according to the scoring scheme every 2 days.
FIGS. 9A and 9B show graphs of clinical scores at day 44 for each group, the overall difference analyzed by ANOVA is significant p<0.0001, while the p value between Model and each individual group is labeled above the bar * p<0.05, ** p<0.01.
Eight of nine groups (10 mice in each group) of male DBA/1J mice (age 9-10 weeks. H-2q haplotype) were subject to CIA model induction and then to different treatment schemes. The group of mice without CIA model induction was used as a control (Blank). Specifically, Bovine type II collagen (Chondrex) was mixed with Freund's complete adjuvant (CFA) (Sigma) and injected s.c. to flank near tail of the mice twice (the second injection was made 21 days after the first injection) to create CIA model mice. The eight groups of CIA model mice were separated into four prophylactic groups and four therapeutic groups, with each group subjected to different treatments.
In the four prophylactic groups, daily treatments started from the date when the first CIA induction injection was made. The first of the four prophylactic groups of CIA model mice were treated with 30% PEG300 (containing 4% DMSO-all 30% PEG300 in the application contains 4% DMSO) solution via intraperitoneal injection as controls (Model). The second of the four prophylactic groups of CIA model mice were treated with nicotinohydrazide (Calbiochem) 10 mg/kg in 30% PEG300 solution via intraperitoneal injection (573108 10 mg/kg). The third of the four prophylactic groups of CIA model mice were treated with nicotinohydrazide (Calbiochem) 5 mg/kg in 30% PEG300 solution via intraperitoneal injection (573108 5 mg/kg). The last of the four prophylactic groups of CIA model mice were treated with Tofacitinib (Selleckchem) 5 mg/kg in 30% PEG300 solution via intraperitoneal injection (Tofacitinib 5 mg/kg).
In the four therapeutic groups, daily treatments started from the date when the second CIA induction injection was made. The first of the four therapeutic groups of CIA model mice were treated with 30% PEG300 solution via intraperitoneal injection as controls (Model). The second of the four therapeutic groups of CIA model mice were treated with nicotinohydrazide (Calbiochem) 10 mg/kg in 30% PEG300 solution via intraperitoncal injection (573108 10 mg/kg). The third of the four therapeutic groups of CIA model mice were treated with nicotinohydrazide (Calbiochem) 5 mg/kg in 30% PEG300 solution via intraperitoneal injection (573108 5 mg/kg). The last of the four therapeutic groups of CIA model mice were treated with Tofacitinib (Selleckchem) 5 mg/kg in 30% PEG300 solution via intraperitoncal injection (Tofacitinib 5 mg/kg).
The inventors collected data of the weight, and clinical scores of the mice every 2-3 days and performed statistic analysis. The method used in the statistic analysis was Student's t test, unpaired, two-tailed analysis.
The clinical scores were derived according to the scheme in Table 2.

| SMILES | reduction of clinical scores vs Model, P (ANOVA) (prophylactic groups, 10 mg/kg) | reduction of clinical scores vs Model, P (ANOVA) (therapeutic groups, 5 mg/kg) | reduction of clinical scores vs Model, P (ANOVA) (therapeutic groups, 10 mg/kg) | reduction of clinical scores vs Model, P (ANOVA) (prophylactic groups, 5 mg/kg) |
| --- | --- | --- | --- | --- |
| O=C(N/N=C/c1coc2ccccc2c1=O)c1cccnc1 [nicotinohydrazide, N′-((4-Oxo-4H-chromen-3-yl)methylene)nicotinohydrazide] | < 0.0001 | < 0.0001 | < 0.0001 | – |
| C[C@@H]1CCN(C(=O)CC#N)C[C@@H]1N(C)c1ncnc2[nH]ccc12 [Tofacitinib] | – | < 0.0001 | – | < 0.0001 |
